Results from one PubChem assay

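A panel of P. falciparum strains inside erythrocytes is exposed to compounds for three days, then a DNA-binding dye reports the amount of parasite DNA.
Each compound was titrated across a series from about 0.000037 to 29 µM.
The number is the fitted AC50, the concentration giving a half-maximal change in signal; a lower value means higher potency, whether the curve shows a decrease or an increase.
Calls follow the curve class and fit quality: every row here is inconclusive, covering signal-raising curves and weak, poorly fitted, partial or highest-dose-only inhibition curves.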

Values are in µM.
Every entry below has the call inconclusive.
These entries are mostly ones the record files as inconclusive; other results of the assay are not listed here.
Potencies fitted to partial, single-point or poorly fitting curves are rough.

compound,setting,potency (µM),remark
COC1OC(CO)C(OC2OC(C(=O)O)C(OC3OC(COS(=O)(=O)O)C(OC4OC(C(=O)O)C(OC5OC(CO)C(OC6OC(C(=O)O)C(OC7OC(COS(=O)(=O)O)C(OC8OC(C(=O)O)=C[C@H](O)C8OS(=O)(=O)O)C(O)C7NC(C)=O)[C@@H](O)C6O)C(O)C5NC(C)=O)[C@@H](O)C4O)C(O)C3NC(C)=O)[C@@H](O)C2O)C(O)C1NC(C)=O (stereo partly drawn),CP265,10,"inhibitor, single point"
COC1OC(CO)C(OC2OC(C(=O)O)C(OC3OC(COS(=O)(=O)O)C(OC4OC(C(=O)O)C(OC5OC(CO)C(OC6OC(C(=O)O)C(OC7OC(COS(=O)(=O)O)C(OC8OC(C(=O)O)=C[C@H](O)C8OS(=O)(=O)O)C(O)C7NC(C)=O)[C@@H](O)C6O)C(O)C5NC(C)=O)[C@@H](O)C4O)C(O)C3NC(C)=O)[C@@H](O)C2O)C(O)C1NC(C)=O (stereo partly drawn),CP335,19.01,"inhibitor, single point"
COC1OC(CO)C(OC2OC(C(=O)O)C(OC3OC(COS(=O)(=O)O)C(OC4OC(C(=O)O)C(OC5OC(CO)C(OC6OC(C(=O)O)C(OC7OC(COS(=O)(=O)O)C(OC8OC(C(=O)O)=C[C@H](O)C8OS(=O)(=O)O)C(O)C7NC(C)=O)[C@@H](O)C6O)C(O)C5NC(C)=O)[C@@H](O)C4O)C(O)C3NC(C)=O)[C@@H](O)C2O)C(O)C1NC(C)=O (stereo partly drawn),ATS189,8.912,"inhibitor, single point"
COC1OC(CO)C(OC2OC(C(=O)O)C(OC3OC(COS(=O)(=O)O)C(OC4OC(C(=O)O)C(OC5OC(CO)C(OC6OC(C(=O)O)C(OC7OC(COS(=O)(=O)O)C(OC8OC(C(=O)O)=C[C@H](O)C8OS(=O)(=O)O)C(O)C7NC(C)=O)[C@@H](O)C6O)C(O)C5NC(C)=O)[C@@H](O)C4O)C(O)C3NC(C)=O)[C@@H](O)C2O)C(O)C1NC(C)=O (stereo partly drawn),CP260,15.85,"inhibitor, single point"
COC1OC(CO)C(OC2OC(C(=O)O)C(OC3OC(COS(=O)(=O)O)C(OC4OC(C(=O)O)C(OC5OC(CO)C(OC6OC(C(=O)O)C(OC7OC(COS(=O)(=O)O)C(OC8OC(C(=O)O)=C[C@H](O)C8OS(=O)(=O)O)C(O)C7NC(C)=O)[C@@H](O)C6O)C(O)C5NC(C)=O)[C@@H](O)C4O)C(O)C3NC(C)=O)[C@@H](O)C2O)C(O)C1NC(C)=O (stereo partly drawn),3D7,17.78,"inhibitor, single point"
COC1OC(CO)C(OC2OC(C(=O)O)C(OC3OC(COS(=O)(=O)O)C(OC4OC(C(=O)O)C(OC5OC(CO)C(OC6OC(C(=O)O)C(OC7OC(COS(=O)(=O)O)C(OC8OC(C(=O)O)=C[C@H](O)C8OS(=O)(=O)O)C(O)C7NC(C)=O)[C@@H](O)C6O)C(O)C5NC(C)=O)[C@@H](O)C4O)C(O)C3NC(C)=O)[C@@H](O)C2O)C(O)C1NC(C)=O (stereo partly drawn),CP252,17.78,"inhibitor, single point"
COC1OC(CO)C(OC2OC(C(=O)O)C(OC3OC(COS(=O)(=O)O)C(OC4OC(C(=O)O)C(OC5OC(CO)C(OC6OC(C(=O)O)C(OC7OC(COS(=O)(=O)O)C(OC8OC(C(=O)O)=C[C@H](O)C8OS(=O)(=O)O)C(O)C7NC(C)=O)[C@@H](O)C6O)C(O)C5NC(C)=O)[C@@H](O)C4O)C(O)C3NC(C)=O)[C@@H](O)C2O)C(O)C1NC(C)=O (stereo partly drawn),CP237,17.78,"inhibitor, single point"
COC1OC(CO)C(OC2OC(C(=O)O)C(OC3OC(COS(=O)(=O)O)C(OC4OC(C(=O)O)C(OC5OC(CO)C(OC6OC(C(=O)O)C(OC7OC(COS(=O)(=O)O)C(OC8OC(C(=O)O)=C[C@H](O)C8OS(=O)(=O)O)C(O)C7NC(C)=O)[C@@H](O)C6O)C(O)C5NC(C)=O)[C@@H](O)C4O)C(O)C3NC(C)=O)[C@@H](O)C2O)C(O)C1NC(C)=O (stereo partly drawn),DIV14,16.94,"inhibitor, single point"
COC1OC(CO)C(OC2OC(C(=O)O)C(OC3OC(COS(=O)(=O)O)C(OC4OC(C(=O)O)C(OC5OC(CO)C(OC6OC(C(=O)O)C(OC7OC(COS(=O)(=O)O)C(OC8OC(C(=O)O)=C[C@H](O)C8OS(=O)(=O)O)C(O)C7NC(C)=O)[C@@H](O)C6O)C(O)C5NC(C)=O)[C@@H](O)C4O)C(O)C3NC(C)=O)[C@@H](O)C2O)C(O)C1NC(C)=O (stereo partly drawn),CP247,12.59,"inhibitor, single point"
Cc1c(NC(C)C)c(=O)n(-c2ccccc2)n1C,CP266,21.33,"inhibitor, partial curve, poor fit"
Cc1c(NC(C)C)c(=O)n(-c2ccccc2)n1C,ICS,1.778,"inhibitor, single point"
CO/N=C1\CN(c2nc3c(cc2F)c(=O)c(C(=O)O)cn3C2CC2)CC1CN (stereo not drawn),CP325,6.746,"inhibitor, partial curve"
CO/N=C1\CN(c2nc3c(cc2F)c(=O)c(C(=O)O)cn3C2CC2)CC1CN (stereo not drawn),CP250,17.78,"inhibitor, single point"
CO/N=C1\CN(c2nc3c(cc2F)c(=O)c(C(=O)O)cn3C2CC2)CC1CN (stereo not drawn),CP192,16.94,"inhibitor, single point"
CO/N=C1\CN(c2nc3c(cc2F)c(=O)c(C(=O)O)cn3C2CC2)CC1CN (stereo not drawn),CP297,10.69,"inhibitor, partial curve, poor fit"
CO/N=C1\CN(c2nc3c(cc2F)c(=O)c(C(=O)O)cn3C2CC2)CC1CN (stereo not drawn),CP252,12.59,"inhibitor, partial curve"
CO/N=C1\CN(c2nc3c(cc2F)c(=O)c(C(=O)O)cn3C2CC2)CC1CN (stereo not drawn),CP211,9.528,"inhibitor, partial curve"
CO/N=C1\CN(c2nc3c(cc2F)c(=O)c(C(=O)O)cn3C2CC2)CC1CN (stereo not drawn),CP256,12.59,"inhibitor, partial curve, poor fit"
CO/N=C1\CN(c2nc3c(cc2F)c(=O)c(C(=O)O)cn3C2CC2)CC1CN (stereo not drawn),CP265,12.59,"inhibitor, single point"
CO/N=C1\CN(c2nc3c(cc2F)c(=O)c(C(=O)O)cn3C2CC2)CC1CN (stereo not drawn),CP266,16.94,"inhibitor, single point"
CO/N=C1\CN(c2nc3c(cc2F)c(=O)c(C(=O)O)cn3C2CC2)CC1CN (stereo not drawn),CP194,13.46,"inhibitor, partial curve"
CO/N=C1\CN(c2nc3c(cc2F)c(=O)c(C(=O)O)cn3C2CC2)CC1CN (stereo not drawn),PAD,10,"inhibitor, single point"
CO/N=C1\CN(c2nc3c(cc2F)c(=O)c(C(=O)O)cn3C2CC2)CC1CN (stereo not drawn),ATS189,8.912,"inhibitor, single point"
CO/N=C1\CN(c2nc3c(cc2F)c(=O)c(C(=O)O)cn3C2CC2)CC1CN (stereo not drawn),DIV14,12,"inhibitor, single point"
CO/N=C1\CN(c2nc3c(cc2F)c(=O)c(C(=O)O)cn3C2CC2)CC1CN (stereo not drawn),CP305,8.492,"inhibitor, partial curve"
CO/N=C1\CN(c2nc3c(cc2F)c(=O)c(C(=O)O)cn3C2CC2)CC1CN (stereo not drawn),P94_40,7.943,"inhibitor, partial curve"
CO/N=C1\CN(c2nc3c(cc2F)c(=O)c(C(=O)O)cn3C2CC2)CC1CN (stereo not drawn),N140,7.943,"inhibitor, partial curve"
CCOC(=O)c1ccc(OC(=O)CCCCCN=C(N)N)cc1,3D7,10,"inhibitor, single point"

For reference, 2 entries once more:

{"compound": "CO/N=C1\\CN(c2nc3c(cc2F)c(=O)c(C(=O)O)cn3C2CC2)CC1CN", "stereo": "stereo not drawn", "setting": "CP325", "potency (µM)": "6.746", "remark": "inhibitor, partial curve"}
{"compound": "CO/N=C1\\CN(c2nc3c(cc2F)c(=O)c(C(=O)O)cn3C2CC2)CC1CN", "stereo": "stereo not drawn", "setting": "ATS189", "potency (µM)": "8.912", "remark": "inhibitor, single point"}

The results are deposited in PubChem (AID504749; NCATS, 2011).